In PMC7819943, “Rice protein-binding microarrays: a tool to detect cis-acting elements near promoter regions in rice”:
The other results are listed elsewhere or left out.

The sequences below were run against T1, OsSMF1 (Oryza sativa, UniProt Q6ZLB0 1-436) (assay: protein-binding microarray (RPBM); PBS, 2% BSA, 51.3 ng/ul salmon testes DNA, 50 uM zinc acetate, 200 nM TF, 25 C, 1 h; high values mean tight binding). Details: protein: recombinant; tags: N-terminal polyhistidine and DsRed monomer fusion (pET32a); chain copies: 2; label: CyDye5-dUTP incorporated in the synthesized complementary strand; 3' TTTTT single-stranded linker to array surface; dsDNA, one strand shown.
T1 sequence: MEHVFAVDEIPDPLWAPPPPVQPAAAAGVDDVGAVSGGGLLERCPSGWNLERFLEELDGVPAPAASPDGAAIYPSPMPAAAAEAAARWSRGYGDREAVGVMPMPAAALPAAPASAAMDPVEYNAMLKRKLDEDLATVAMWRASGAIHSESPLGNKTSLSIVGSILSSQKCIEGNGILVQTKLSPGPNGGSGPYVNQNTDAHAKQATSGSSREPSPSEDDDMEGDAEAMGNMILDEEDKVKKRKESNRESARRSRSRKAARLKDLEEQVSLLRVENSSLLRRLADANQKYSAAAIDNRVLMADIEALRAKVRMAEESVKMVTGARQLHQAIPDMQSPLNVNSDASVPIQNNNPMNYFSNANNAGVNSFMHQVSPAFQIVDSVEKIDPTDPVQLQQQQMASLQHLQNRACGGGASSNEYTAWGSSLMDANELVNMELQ
Procedure, shortened: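 Binding signal is reported as fluorescence intensity per feature (arbitrary units) from an Axon 4000B scanner. Incubation used 200 nM of each Ni–NTA-purified, N-terminally polyhistidine- and DsRed-fused transcription factor from E. coli BL21-CodonPlus on a double-stranded custom Agilent array for 1 h at 25 °C, with 50 µM zinc acetate in the buffer, followed by washing.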
With “CTTCCTCCTCCGCCGCCGCCGTCGCCGCCCGGACTCACTACGGAGTCACCTAGTGCAG” the binding signal was 5340 fluorescence intensity (a.u.). “GATGTAGACAGTGCATCGTTCACACATATGGGAGAGGCATCGGAGTCACCTAGTGCAG” was tested, and the binding signal was 22200 fluorescence intensity (a.u.). For “AAAATTTAATACGACGAATGTTCAAACGGTGCAAGCAAAACGGAGTCACCTAGTGCAG”, the binding signal was 45000 fluorescence intensity (a.u.). For “GGACGAGGGGAGGTAGCGCCAACGCAACCGCTAGCTGCCGCGGAGTCACCTAGTGCAG”, the binding signal was 3230 fluorescence intensity (a.u.). With “GGGAGTAGGGAGATCGATCCACCTCCGCCATGCTCCTTCCCGGAGTCACCTAGTGCAG” the binding signal was 3260 fluorescence intensity (a.u.). In the case of “TTAGATATATTGACACATATTTAAAGTATTAAACGTAGTCCGGAGTCACCTAGTGCAG”, the binding signal is reported as 3620 fluorescence intensity (a.u.). In the case of “GTCGGACAACTCCGAGAGCTCCAACGCGGCGACCAACTCGCGGAGTCACCTAGTGCAG”, the binding signal is reported as 3230 fluorescence intensity (a.u.). For “TTTTCCGTGCTCTTCCCGTTTCCTTCGACACGTCGAGTGGCGGAGTCACCTAGTGCAG”, the binding signal was 4420 fluorescence intensity (a.u.). In the case of “TATACCCACGTGAGGACGTAAGGTCACTATCTTTCCACCTCGGAGTCACCTAGTGCAG”, the binding signal is reported as 3770 fluorescence intensity (a.u.). For “TATTCTAATGCCACTTAAACGCCACATCAACGCCACGTAGCGGAGTCACCTAGTGCAG”, the binding signal was 14000 fluorescence intensity (a.u.). “ACTCCAGCACCTTCTCGTCCATGATCCGCGGCGGCCCCAGCGGAGTCACCTAGTGCAG” was tested, and the binding signal was 3210 fluorescence intensity (a.u.). “GGTGGGTGCATCCAATGTCGATGTGGTTAGCGGCGGTGAACGGAGTCACCTAGTGCAG” was tested, and the binding signal was 3490 fluorescence intensity (a.u.). For “TTGCATGTTGTTCTTCGTCAAACATCATCTGCATATAATGCGGAGTCACCTAGTGCAG”, the binding signal was 3190 fluorescence intensity (a.u.). In the case of “TACTACTAATAATCCTTTTCGGTGAAGGTGGTGACGTCGTCGGAGTCACCTAGTGCAG”, the binding signal is reported as 4660 fluorescence intensity (a.u.). For “GGTTGTTCTAACAAATTGTTTATAAAACAATTTGATTTTGCGGAGTCACCTAGTGCAG”, the binding signal was 3570 fluorescence intensity (a.u.). In the case of “TAGGATACTGACTCATGTTGCTGCTGCTCTTTTCGTCTATCGGAGTCACCTAGTGCAG”, the binding signal is reported as 8360 fluorescence intensity (a.u.). For “AATTGAAGAAACGATGACTACGTACTTAATTCCTCGTCTACGGAGTCACCTAGTGCAG”, the binding signal was 4340 fluorescence intensity (a.u.). For “GGCACATACGCGTTCGTACGTGTCGGCACATTTCACACCACGGAGTCACCTAGTGCAG”, the binding signal was 3980 fluorescence intensity (a.u.). For “AATAATTTTAGCTGTGTTGTCTTGGCAGGCGCCGGCGTGTCGGAGTCACCTAGTGCAG”, the binding signal was 3620 fluorescence intensity (a.u.). In the case of “GCACGGCAGCTGACACGGGAACTCGCCGCGATCCCCGCCGCGGAGTCACCTAGTGCAG”, the binding signal is reported as 3260 fluorescence intensity (a.u.). With “CGGTCCATTCATCAACCCACGTCATCGCCCAATCCGCAGCCGGAGTCACCTAGTGCAG” the binding signal was 25300 fluorescence intensity (a.u.). For “AGCATTCACCCAGCATTAGCCGGTTTCACAACAGCATCATCGGAGTCACCTAGTGCAG”, the binding signal was 4090 fluorescence intensity (a.u.). In the case of “GCCTTAGTTCTATAGTGGGCCAAAATATATCCGGCGCTAGCGGAGTCACCTAGTGCAG”, the binding signal is reported as 3410 fluorescence intensity (a.u.). With “TCAAAATTTGATAGCTGCTTATAAGCTGAAAGACAAACGACGGAGTCACCTAGTGCAG” the binding signal was 21900 fluorescence intensity (a.u.). With “GTGTGTAATTGTTGCGTACGTCAATGTGGCAGATGAGAGGCGGAGTCACCTAGTGCAG” the binding signal was 6610 fluorescence intensity (a.u.). In the case of “ATATACGGAGTATATATACACCACCTCACCACCAATCAACCGGAGTCACCTAGTGCAG”, the binding signal is reported as 3590 fluorescence intensity (a.u.). “ACACATGCCCAGATAGTTTTCTTTGTCATCTCATTCTGCACGGAGTCACCTAGTGCAG” was tested, and the binding signal was 3820 fluorescence intensity (a.u.). With “TCTGTTTGAATTATTGAATTCCATGTGGAAGTGCACAGAGCGGAGTCACCTAGTGCAG” the binding signal was 3150 fluorescence intensity (a.u.). With “AGGTCGTGACACGCCACGTCACGCTTGGGACCACCCGTCGCGGAGTCACCTAGTGCAG” the binding signal was 24200 fluorescence intensity (a.u.). In the case of “AATGAGTTGAAGGAAGCTATCTCCGCTGTACGTGGCAGTCCGGAGTCACCTAGTGCAG”, the binding signal is reported as 9380 fluorescence intensity (a.u.). “AGAAACACCTGCTCCTTGTCACGTCTATCCACCAATTAATCGGAGTCACCTAGTGCAG” was tested, and the binding signal was 6020 fluorescence intensity (a.u.). With “CCAGTCGAATCACAACCTCCCTCGCTCCCTCTGACCCTCTCGGAGTCACCTAGTGCAG” the binding signal was 7150 fluorescence intensity (a.u.). For “ATGGAGGTGTTGCCTTGCTGACTCTCTTTCCCTTTGGGTGCGGAGTCACCTAGTGCAG”, the binding signal was 4870 fluorescence intensity (a.u.). For “GTAGCTGTTAAGTTCCATCTCGTCAGCAGCTGCCTGCAGACGGAGTCACCTAGTGCAG”, the binding signal was 3210 fluorescence intensity (a.u.). In the case of “TGGAGATCGAAACCCTCTGTGAGTGACACGTGGACCAGCACGGAGTCACCTAGTGCAG”, the binding signal is reported as 15500 fluorescence intensity (a.u.). In the case of “TCGTCGCCGGCGGGATGGCCGGTCGTCCGTCAGCATCCTCCGGAGTCACCTAGTGCAG”, the binding signal is reported as 4180 fluorescence intensity (a.u.). “CCTTTCTCCCGAAAATACGGGCGCACACGTACTCCGCATCCGGAGTCACCTAGTGCAG” was tested, and the binding signal was 3780 fluorescence intensity (a.u.). For “CCGGGTTAGCTTTTGGTTGCACGAGATGATTACGAGTGTGCGGAGTCACCTAGTGCAG”, the binding signal was 20000 fluorescence intensity (a.u.). With “AAGCAAGTAAATAAATGCCACTCCAAAGAATCATAGTTGTCGGAGTCACCTAGTGCAG” the binding signal was 3680 fluorescence intensity (a.u.). With “TAGCCAACGTGCATTCCGGCCTCGTGCTTCCCCTTACTCGCGGAGTCACCTAGTGCAG” the binding signal was 4290 fluorescence intensity (a.u.). With “ATTCTTCTCCAGGGGACTAACCCATCCCACTCACCTCTAACGGAGTCACCTAGTGCAG” the binding signal was 3370 fluorescence intensity (a.u.). In the case of “AACTAATTCGCCCTTCCTCCTCCACGCCCTCTCGCTACCACGGAGTCACCTAGTGCAG”, the binding signal is reported as 3400 fluorescence intensity (a.u.).
